# Laboratory results from patent publication US20240327540A1.
# Protein sequences, listed by entry. Tags and fused reporters are not part of them. Lines headed by an entry give the natural chain unless they say otherwise; changes in a name come on top.
# UniProt Q9UNK4: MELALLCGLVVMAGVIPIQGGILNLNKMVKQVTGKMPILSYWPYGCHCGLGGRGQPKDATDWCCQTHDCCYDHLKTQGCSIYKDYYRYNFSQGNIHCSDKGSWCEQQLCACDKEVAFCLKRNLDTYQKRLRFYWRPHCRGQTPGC
# Substitutions are numbered along the chain they refer to. These are yes or no findings as the source states them, for the method shown. Some binding calls cover weakened binding; strength is not graded here.
# B1: 48.25B3.A6 (antibody, V domains shown)
# VH: QVQLKESGPGLVQPSQTLSLTCTVSGFSLTSYHVHWVRQPPGKGLEWMGVMWSDGDTSHKSALKSRLSISRDTSKSQVFLKMNSLQTEDTATYYCARDSSTEGIPFDYWGQGAMVTVSS
# VL: DIVLTQSPALAVSLGQRATISCRASQSVSMSRFYLMHWYQQKPGQQPKVLIYRASNLASGIPARFSGSGSGTDFTLTINPVQADDIATYYCQQTRESPRTFGGGTKLELK
# B2: 48.29H4.A5 (antibody, V domains shown)
# VH: QVQLKESGPGLVQPSQTLSLTCTVSGFALTSYDMQWVRQPPGKGLEWMGAIWANGNIQYNSILKSRLSISRDTSKSQVFLKMNSLQTEDTAIYFCARFRFDYWGQGVMVTVSS
# VL: DIQMTQSPASLSASLGETVTIECLASEDIYSNLAWYQQKPGKSPQLLIYDASSLQDGVPSRFSGSESGTQYSLEINSLQSEDAVTYFCQHHRDSPLTFGSGTKLEIK
# B3: 47.34G6.H6 (antibody, V domains shown)
# VH: QVTLKESGPGILQSSQTLSLTCSFSGFSLSTSGMGVSWIRQPSGKGLEWLAHIYWDDANRYNPSLESRLTISKDTSRNQVFLKITSVDTADTATYYCAWRSGDWYFDVWGTGTTVTVSS
# VL: QIVLTQSPAIMSASPGEKVTLSCSASSIVRYIYWYQQKPGSSPKPWIYRTFNLASGVPARFSGSGSGTSYSLTISTMEAEDAATYYCQQYHTYPLTFGAGTKLELK
# B4: 44.66C9.H2 (HC/LC) (antibody, V domains shown)
# VH: DVQLQESGPGLVKPSQSLSLTCSVTGYSITSGYYWNWIRQFPGNKLEWMGYISYDGSNNYNPSLKSRISITRDTSKNQFFLKLNSVTTEDTATYYCARWGYYDSRIDYWGQGTTLTVSS
# VL: ETTVTQSPASLSMAIGEKVTIRCITSTDIDDDMNWFQQKPGEPPKLLISEGNTLRPGVPSRFSSNGSGTDFVFTIENMLSEDVADYYCLQSDNLPFTFGAGTKVELK
# B5: 44.18E2.G12 (antibody, V domains shown)
# VH: B4 VH with N58K
# VL: B4 VL with F36Y, L54F, N65S, S67Y
# B6: 48.15C1.A6 (antibody, V domains shown)
# VH: QVQLKESGPGLVQPSQTLSLTCTVSGFSLISYDMHWVRQPPGEGLEWMGVIWSNGNTHYNSTLKSRLSISRDTSKSQVFLEMNSLQTEDTAIYFCSRYPFAYWGQGTLVTVSS
# VL: DIQMTQSPSSLPASLGDRVTITCRASQDIGDYLRWFQQKPGKSPRLMIFGATNLANGVPSRFSGSRSGSDYSLTINSLESEDLAIYYCLQHKEYFPTFGGGTKLELK
# B7: 48.29H4.A5 (LC2) (antibody, V domains shown)
# VH: B2 VH
# VL: B6 VL with D31N, F49Y, L83M, K92N, F95P, P96L, G100S, L106I
# B8: 48.33E9.B12 (antibody, V domains shown)
# VH: QVQLKESGPGLVQPSQTLSLTCTVSGFSLTSKGVSWVRQPPGKGLEWIAAISSSGSTYYDSPLKSRLSISRDTSKSQVFLKMNSLQTEDTAIYFCTRVGDDRFDYWGQGVMVTVSS
# VL: SYELIQPPSASVTLENTVSITCSGDELSNKYVHWYQQKPDKTILEVMYKDSERPSGISDRFSGSSSGTTAILTIRDAQAEDEADYYCLSTFNDDDLPVFGGGTKLTVL
# B9: 48.34F9.E10.C5 (antibody, V domains shown)
# VH: B8 VH with K32N, S35T, S54G, S56T, P62A, K81Q, I92T, T96A, D100G
# VL: B8 VL with N29R, I71S, F91Y, N92G, D93V
# Target: human PLA2G2D (human) (UniProt Q9UNK4)
# Experiment: assay not given
row,binding,Binder
1,binds,B1
2,binds,B2
3,binds,B3
4,binds,B4
5,binds,B5
6,binds,B6
7,binds,B7
8,binds,B8
9,binds,B9

# Target: human PLA2G2D (human) (UniProt Q9UNK4)
# Experiment: ELISA / flow cytometry screening of hybridoma antibodies
row,binding,Binder
1,binds,B1
2,binds,B2
3,binds,B3
4,binds,B4
5,binds,B5
6,binds,B6
7,binds,B7
8,binds,B8
9,binds,B9
